Patent US9422280B2, “N-substituted hetero-bicyclic compounds and derivatives for combating animal pests II” (BASF SE, priority 2012, dated 2016)
Some entries share one result that the patent states for a list of compounds.

Experiments:
Assay type in all cases: in vivo
[1] = test system: Cowpea Aphid (Aphis craccivora); test: Cowpea aphid spray test on potted cowpea plants; conditions: 500 ppm, sprayed cowpea plants, population reduction assessed after 24, 72 and 120 hours
Method: B.3 Cowpea Aphid (Aphis craccivora)
The active compound is dissolved at the desired concentration in a mixture of 1:1 (vol:vol) distilled water:acetone. The test solution is prepared at the day of use.
Potted cowpea plants colonized with approximately 100-150 aphids of various stages were sprayed after the pest population has been recorded. Population reduction was assessed after 24, 72, and 120 hours.

[2] = test system: Vetch Aphid (Megoura viciae); test: Vetch aphid broad bean leaf disk microtiter test; conditions: 800 ppm, sprayed broad bean leaf disks, 5 days
Method: B.4 Vetch Aphid (Megoura viciae)
For evaluating control of vetch aphid (Megoura viciae) through contact or systemic means the test unit consisted of 24-well-microtiter plates containing broad bean leaf disks.
The compounds were formulated using a solution containing 75% v/v water and 25% v/v DMSO. Different concentrations of formulated compounds were sprayed onto the leaf disks at 2.5 μl, using a custom built micro atomizer, at two replications.
After application, the leaf disks were air-dried and 5-8 adult aphids placed on the leaf disks inside the microtiter plate wells. The aphids were then allowed to suck on the treated leaf disks and incubated at about 23±1° C. and about 50±5% relative humidity for 5 days. Aphid mortality and fecundity was then visually assessed.

[3] = test system: Green Peach Aphid (Myzus persicae); test: Green peach aphid foliar spray test on bell pepper; conditions: 300 ppm, sprayed bell pepper plants, aphid mortality after 5 days
Text: B.1 Green Peach Aphid (Myzus persicae)
(§1) The active compounds were formulated in cyclohexanone as a 10,000 ppm solution supplied in tubes. The tubes were inserted into an automated electrostatic sprayer equipped with an atomizing nozzle and they served as stock solutions for which lower dilutions were made in 50% acetone:50% water (v/v). A nonionic surfactant (Kinetic®) was included in the solution at a volume of 0.01% (v/v).
Bell pepper plants at the first true-leaf stage were infested prior to treatment by placing heavily infested leaves from the main colony on top of the treatment plants. Aphids were allowed to transfer overnight to accomplish an infestation of 30-50 aphids per plant and the host leaves were removed. The infested plants were then sprayed by an automated electrostatic plant sprayer equipped with an atomizing spray nozzle. The plants were dried in the sprayer fume hood, removed, and then maintained in a growth room under fluorescent lighting in a 24-hr photoperiod at about 25° C. and about 20-40% relative humidity. Aphid mortality on the treated plants, relative to mortality on untreated control plants, was determined after 5 days.

[4] = test system: Silverleaf Whitefly (bemisia argentifolii); test: Silverleaf whitefly spray test on cotton plants; conditions: 500 ppm, sprayed cotton plants, whitefly adults, 3 days after treatment
Text: B.5 Silverleaf Whitefly (bemisia argentifolii)
as §1
Cotton plants at the cotyledon stage (one plant per pot) were sprayed by an automated electrostatic plant sprayer equipped with an atomizing spray nozzle. The plants were dried in the sprayer fume hood and then removed from the sprayer. Each pot was placed into a plastic cup and about 10 to 12 whitefly adults (approximately 3-5 days old) were introduced. The insects were collected using an aspirator and a nontoxic Tygon® tubing connected to a barrier pipette tip. The tip, containing the collected insects, was then gently inserted into the soil containing the treated plant, allowing insects to crawl out of the tip to reach the foliage for feeding. Cups were covered with a reusable screened lid. Test plants were maintained in a growth room at about 25° C. and about 20-40% relative humidity for 3 days, avoiding direct exposure to fluorescent light (24 hour photoperiod) to prevent trapping of heat inside the cup. Mortality was assessed 3 days after treatment, compared to untreated control plants.

[5] = test system: Rice Brown Plant Hopper (Nilaparvata lugens); test: Rice brown plant hopper spray test on rice seedlings; conditions: 500 ppm, sprayed rice seedlings, adults, after 72 hours
Method: B.9 Rice Brown Plant Hopper (Nilaparvata lugens)
(§2) Rice seedlings were cleaned and washed 24 hours before spraying. The active compounds were formulated in 50:50 acetone:water (vol:vol) and 0.1% vol/vol surfactant (EL 620) was added. Potted rice seedlings were sprayed with 5 ml test solution, air dried, placed in cages and inoculated with 10 adults. Treated rice plants were kept at about 28-29° C. and relative humidity of about 50-60%. Percent mortality was recorded after 72 hours.

[6] = test system: Boll Weevil (Anthonomus grandis); test: Boll weevil insect diet microtiter test; conditions: 2500 ppm, sprayed onto insect diet with eggs, egg and larval mortality after 5 days
Method: B.6 Boll Weevil (Anthonomus grandis)
For evaluating control of boll weevil (Anthonomus grandis) the test unit consisted of 24-well-microtiter plates containing an insect diet and 20-30 A. grandis eggs.
The compounds were formulated using a solution containing 75% v/v water and 25% v/v DMSO. Different concentrations of formulated compounds were sprayed onto the insect diet at 20 μl, using a custom built micro atomizer, at two replications.
After application, microtiter plates were incubated at about 23±1° C. and about 50±5% relative humidity for 5 days. Egg and larval mortality was then visually assessed.

[7] = test system: Orchid Thrips (dichromothrips corbetti); test: Orchid thrips floral-immersion test; conditions: 500 ppm, dipped orchid flowers, adult thrips, 72 hours after treatment
Method: B.7 Orchid Thrips (dichromothrips corbetti)
Dichromothrips corbetti adults used for bioassay were obtained from a colony maintained continuously under laboratory conditions. For testing purposes, the test compound is diluted in a 1:1 mixture of acetone:water (vol:vol), plus 0.01% vol/vol Alkamuls® EL 620 surfactant.
Thrips potency of each compound was evaluated by using a floral-immersion technique. Plastic petri dishes were used as test arenas. All petals of individual, intact orchid flowers were dipped into treatment solution and allowed to dry. Treated flowers were placed into individual petri dishes along with about 20 adult thrips. The petri dishes were then covered with lids. All test arenas were held under continuous light and a temperature of about 28° C. for duration of the assay. After 3 days, the numbers of live thrips were counted on each flower, and along inner walls of each petri dish. The percentmortality was recorded 72 hours after treatment.

[8] = test system: Rice Green Leafhopper (Nephotettix virescens); test: Rice green leafhopper spray test on rice seedlings; conditions: 500 ppm, sprayed rice seedlings, adults, after 72 hours
Method: B.8 Rice Green Leafhopper (Nephotettix virescens)
as §2, with “(vol:vol),” for “(vol:vol)”

With `CCSc1nc2cccn(Cc3ccc(Cl)nc3)c-2n1` [E1.3] as the compound, how does the “mortality in comparison with untreated controls” value (“mortality in comparison” for short) [1] read?
Its value is “at least 75%”.

Which “mortality in comparison” value [1] does the source give for `C[S+]([O-])c1nc2cccn(Cc3ccc(Cl)nc3)c-2n1` (stereo not shown) [E1.7] here?
The value was “at least 75%”.

For `[O-][S+](CC(F)(F)F)c1nc2cccn(Cc3ccc(Cl)nc3)c-2n1` (stereo not shown) [E1.13], which “mortality in comparison” value [2] is on record?
Its value is “at least 75%”.

With `Clc1ccc(Cn2cccc3nc(C(Cl)(Cl)Cl)nc2-3)cn1` [E1.14] as the compound, how does the “mortality in comparison” value [1] read?
The value was “at least 75%”.

And the “mortality in comparison” value [2]?
Its value is “at least 75%”.

`FC(F)(F)c1nc2cccn(Cc3cnc(Cl)s3)c-2n1` [E1.17] was tested. Which “mortality in comparison” value [3] did it give?
Its value is “at least 75%”.

What about the “mortality in comparison” value [2] of the same compound?
Its value is “at least 75%”.

What about the “mortality in comparison” value [4] of the same compound?
Its value is “at least 75%”.

For `FC(F)(F)c1nc2cc(Cl)cn(Cc3ccc(Cl)nc3)c-2n1` [E1.21], which “mortality in comparison” value [1] is on record?
Its value is “at least 75%”.

How did the “mortality in comparison” value [1] turn out when `Cc1ccn(Cc2ccc(Cl)nc2)c2nc(C(F)(F)F)nc1-2` [E1.25] was run?
The value was “at least 75%”.

And the “mortality in comparison” value [5]?
Its value is “at least 75%”.

Which “mortality in comparison” value [1] does the source give for `N#Cc1nc2cccn(Cc3ccc(Cl)nc3)c-2n1` [E1.32] here?
The value was “at least 75%”.

What about the “mortality in comparison” value [2] of the same compound?
Its value is “at least 75%”.

What about the “mortality in comparison” value [4] of the same compound?
Its value is “at least 75%”.

What about the “mortality in comparison” value [6] of the same compound?
The value was “over 75%”.

What about the “mortality in comparison” value [7] of the same compound?
The value was “at least 75%”.

And the “mortality in comparison” value [8]?
The value was “at least 75%”.

And the “mortality in comparison” value [5]?
The value was “at least 75%”.

What does the source list for `Cc1ccc2nc(C(F)(F)F)nc-2n1Cc1ccc(Cl)nc1` [E1.33]?
mortality in comparison with untreated controls [1]: at least 75%; mortality in comparison with untreated controls [7]: at least 75%

Which results are given for `Cc1cc2nc(C(F)(F)F)nc-2n(Cc2ccc(Cl)nc2)c1` [E1.35]?
mortality in comparison with untreated controls [1]: at least 75%; mortality in comparison with untreated controls [7]: at least 75%

Which results are given for `FC(F)Sc1nc2cccn(Cc3ccc(Cl)nc3)c-2n1` [E1.36]?
mortality in comparison with untreated controls [1]: at least 75%; mortality in comparison with untreated controls [8]: at least 75%; mortality in comparison with untreated controls [5]: at least 75%

With `CC(c1ccc(Cl)nc1)n1cccc2nc(C(F)(F)F)nc1-2` (stereo not shown) [E1.37] as the compound, how does the “mortality in comparison” value [1] read?
Its value is “at least 75%”.

And the “mortality in comparison” value [2]?
Its value is “at least 75%”.

And the “mortality in comparison” value [4]?
Its value is “at least 75%”.

And the “mortality in comparison” value [7]?
The value was “at least 75%”.

What about the “mortality in comparison” value [8] of the same compound?
Its value is “at least 75%”.

What about the “mortality in comparison” value [5] of the same compound?
The value was “at least 75%”.

Which results are given for `FC(F)(Cl)c1nc2cccn(Cc3ccc(Cl)nc3)c-2n1` [E1.40]?
mortality in comparison with untreated controls [3]: at least 75%; mortality in comparison with untreated controls [1]: at least 75%; mortality in comparison with untreated controls [7]: at least 75%; mortality in comparison with untreated controls [8]: at least 75%; mortality in comparison with untreated controls [5]: at least 75%

Which “mortality in comparison” value [1] does the source give for `N#CCc1nc2cccn(Cc3ccc(Cl)nc3)c-2n1` [E1.42] here?
Its value is “at least 75%”.

`FC(F)(F)c1nc2cccn(Cc3cncnc3)c-2n1` [E1.45] was tested. Which “mortality in comparison” value [1] did it give?
The value was “at least 75%”.

What about the “mortality in comparison” value [7] of the same compound?
Its value is “at least 75%”.

What about the “mortality in comparison” value [8] of the same compound?
Its value is “at least 75%”.

And the “mortality in comparison” value [5]?
The value was “at least 75%”.

For `Fc1nc2cccn(Cc3ccc(Cl)nc3)c-2n1` [E1.46], which “mortality in comparison” value [3] is on record?
The value was “at least 75%”.

And the “mortality in comparison” value [1]?
Its value is “at least 75%”.

What about the “mortality in comparison” value [2] of the same compound?
The value was “at least 75%”.

Which “mortality in comparison” value [3] does the source give for `Fc1nc2cccn(Cc3cnc(Cl)s3)c-2n1` [E1.47] here?
Its value is “at least 75%”.

And the “mortality in comparison” value [2]?
The value was “at least 75%”.

Which results are given for `Clc1ccc(CN2CCn3nc(Br)nc32)cn1` [E2.1]?
mortality in comparison with untreated controls [1]: at least 75%; mortality in comparison with untreated controls [7]: at least 75%

With `Clc1ccc(CN2CCCn3nc(Br)nc32)cn1` [E2.2] as the compound, how does the “mortality in comparison” value [1] read?
The value was “at least 75%”.

And the “mortality in comparison” value [7]?
The value was “at least 75%”.

And the “mortality in comparison” value [8]?
Its value is “at least 75%”.

Which “mortality in comparison” value [3] does the source give for `N#Cc1nc2n(n1)CCCN2Cc1ccc(Cl)nc1` [E2.4] here?
Its value is “at least 75%”.

And the “mortality in comparison” value [1]?
Its value is “at least 75%”.

And the “mortality in comparison” value [7]?
Its value is “at least 75%”.

`N#Cc1nc2n(n1)CCN2Cc1ccc(Cl)nc1` [E2.7] was tested. Which “mortality in comparison” value [1] did it give?
Its value is “at least 75%”.

For `O=[N+]([O-])c1nc2n(n1)CCCN2Cc1ccc(Cl)nc1` [E2.10], which “mortality in comparison” value [6] is on record?
The value was “over 75%”.

What about the “mortality in comparison” value [7] of the same compound?
Its value is “at least 75%”.

`FC(F)(F)c1nc2n(n1)CCCN2Cc1ccc(Cl)nc1` [E2.11] was tested. Which “mortality in comparison” value [2] did it give?
Its value is “at least 75%”.

For `Cc1cn2nc([N+](=O)[O-])nc2n1Cc1cnc(Cl)c(F)c1` [E2.12], which “mortality in comparison” value [1] is on record?
Its value is “at least 75%”.

And the “mortality in comparison” value [6]?
Its value is “over 75%”.

How did the “mortality in comparison” value [6] turn out when `Cc1cn2nc([N+](=O)[O-])nc2n1Cc1ccc(Cl)nc1` [E2.13] was run?
The value was “over 75%”.

Which “mortality in comparison” value [1] does the source give for `O=[N+]([O-])c1nc2n(n1)CCCN2Cc1cnc(Cl)c(F)c1` [E2.15] here?
Its value is “at least 75%”.

Which “mortality in comparison” value [1] does the source give for `Cc1cn2nc(C(F)(F)F)nc2n1Cc1ccc(Cl)nc1` [E2.16] here?
Its value is “at least 75%”.

What about the “mortality in comparison” value [2] of the same compound?
The value was “at least 75%”.

And the “mortality in comparison” value [8]?
Its value is “at least 75%”.

What about the “mortality in comparison” value [5] of the same compound?
The value was “at least 75%”.

How did the “mortality in comparison” value [1] turn out when `Cc1cn2nc(C(F)(F)F)nc2n1Cc1cnc(Cl)s1` [E2.17] was run?
The value was “at least 75%”.

`Cc1cn2nc(C(F)(F)F)nc2n1C(C)c1ccc(C(F)(F)F)nc1` (stereo not shown) [E2.22] was tested. Which “mortality in comparison” value [6] did it give?
The value was “over 75%”.

`Cc1cn2nc(F)nc2n1C(C)c1ccc(C(F)(F)F)nc1` (stereo not shown) [E2.23] was tested. Which “mortality in comparison” value [2] did it give?
Its value is “at least 75%”.

What about the “mortality in comparison” value [7] of the same compound?
Its value is “at least 75%”.
